These are yes or no findings as the source states them, for the method shown. In cells and extracts the contact can be indirect. A yes stands for co-enrichment or nearness to the bait. Other partners may have been found.
Molecular target: PD-L1 (bait of the IP-MS) (UniProt Q9NZQ7)
Assay: affinity purification with mass spectrometry; immunoprecipitation of PD-L1 followed by mass spectrometry (IP-MS); cells, antibody and conditions not told

The chains behind the UniProt entries cited, without tags or fusion partners. Residues count along the entry.
UniProt Q9NZQ7, residues 19-290: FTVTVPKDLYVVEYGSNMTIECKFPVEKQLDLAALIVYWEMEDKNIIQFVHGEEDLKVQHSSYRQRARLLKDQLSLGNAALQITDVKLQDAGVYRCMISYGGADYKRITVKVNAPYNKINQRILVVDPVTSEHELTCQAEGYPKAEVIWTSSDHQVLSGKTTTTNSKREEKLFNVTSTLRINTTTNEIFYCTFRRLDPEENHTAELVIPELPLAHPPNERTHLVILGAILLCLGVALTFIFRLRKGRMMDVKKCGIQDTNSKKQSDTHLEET

B1: flotillin-1 (FLOT1) (hit of the IP-MS) (protein, UniProt O75955 1-427)
chain: MFFTCGPNEAMVVSGFCRSPPVMVAGGRVFVLPCIQQIQRISLNTLTLNVKSEKVYTRHGVPISVTGIAQVKIQGQNKEMLAAACQMFLGKTEAEIAHIALETLEGHQRAIMAHMTVEEIYKDRQKFSEQVFKVASSDLVNMGISVVSYTLKDIHDDQDYLHSLGKARTAQVQKDARIGEAEAKRDAGIREAKAKQEKVSAQYLSEIEMAKAQRDYELKKAAYDIEVNTRRAQADLAYQLQVAKTKQQIEEQRVQVQVVERAQQVAVQEQEIARREKELEARVRKPAEAERYKLERLAEAEKSQLIMQAEAEAASVRMRGEAEAFAIGARARAEAEQMAKKAEAFQLYQEAAQLDMLLEKLPQVAEEISGPLTSANKITLVSSGSGTMGAAKVTGEVLDILTRLPESVERLTGVSISQVNHKPLRTA
  binding: binds
